Source: PMC12718634
Results are given in words; binding and its absence hold for the method and conditions named. Binding seen in cells or lysates may run through a third protein. Where a sequence is shown, tags or fusion partners need not be part of it.

Molecular target: T1, CYRI-B-p17-GFP (UniProt Q921M7)
T1 sequence: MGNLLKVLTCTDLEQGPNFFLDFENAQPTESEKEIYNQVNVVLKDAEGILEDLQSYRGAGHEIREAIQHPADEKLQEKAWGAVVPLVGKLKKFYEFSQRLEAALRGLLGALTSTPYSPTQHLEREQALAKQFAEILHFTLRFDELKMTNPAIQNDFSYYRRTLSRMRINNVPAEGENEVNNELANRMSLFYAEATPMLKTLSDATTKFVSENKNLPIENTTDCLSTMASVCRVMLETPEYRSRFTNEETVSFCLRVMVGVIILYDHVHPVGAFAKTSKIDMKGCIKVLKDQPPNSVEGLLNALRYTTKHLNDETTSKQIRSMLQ
Assay: co-IP; GFP-Trap: lysate (1.5 mg protein) of B16-F1 cells transiently expressing GFP or CYRI-B-p17-GFP on GFP-Trap_A beads, 2 h at 4°C; 25 mM Tris-HCl pH 7.5, 100 mM NaCl, 5 mM MgCl2, 0.5% NP-40; blot probed with anti-ERC1 for endogenous ERC1

- binding: no binding
B1: ERC1 (protein, UniProt Q99MI1 1-1120)
chain: MYGSARSVGKVEPSSQSPGRSPRLPRSPRLGHRRTNSTGGSSGNSVGGGSGKTLSMENIQSLNAAYATSGPMYLSDHENVGAETPKSTMTLGRSGGRLPYGVRMTAMGSSPNIASSGVASDTIAFGEHHLPPVSMASTVPHSLRQARDNTIMDLQTQLKEVLRENDLLRKDVEVKESKLSSSMNSIKTFWSPELKKERALRKDEASKITIWKEQYRVVQEENQHMQMTIQALQDELRIQRDLNQLFQQDSSSRTGEPCVAELTEENFQRLHAEHERQAKELFLLRKTLEEMELRIETQKQTLNARDESIKKLLEMLQSKGLSAKATEEDHERTRRLAEAEMHVHHLESLLEQKEKENNMLREEMHRRFENAPDSAKTKALQTVIEMKDSKISSMERGLRDLEEEIQMLKSNGALSSEEREEEMKQMEVYRSHSKFMKNKVEQLKEELSSKDAQGEELKKRAAGLQSEIGQVKQELSRKDTELLALQTKLETLTNQFSDSKQHIEVLKESLTAKEQRAAILQTEVDALRLRLEEKETMLNKKTKQIQDMAEEKGTQAGEIHDLKDMLDVKERKVNVLQKKIENLQEQLRDKEKQMSSLKERVKSLQADTTNTDTALTTLEEALADKERTIERLKEQRDRDEREKQEEIDTYKKDLKDLREKVSLLQGDLSEKEASLLDIKEHASSLASSGLKKDSRLKTLEIALEQKKEECLKMESQLKKAHEATLEARASPEMSDRIQQLEREISRYKDESSKAQTEVDRLLEILKEVENEKNDKDKKIAELESLTSRQVKDQNKKVANLKHKEQVEKKKSAQMLEEARRREDSLSDSSQQLQDSLRKKDDRIEELEEALRESVQITAEREMVLAQEESARTNAEKQVEELLMAMEKVKQELESMKAKLSSTQQSLAEKETHLTNLRAERRKHLEEVLEMKQEALLAAISEKDANIALLELSSSKKKTQEEVAALKREKDRLVQQLKQQTQNRMKLMADNYEDDHFRSSRSNQTNHKPSPDQIIQPLLELDQNRSKLKLYIGHLTALCHDRDPLILRGLTPPASYNADGEQAAWENELQQMTQEQLQNELEKVEGDNAELQEFANTILQQIADHCPDILEQVVNALEESS
